Test results taken from paper PMC9508527, “Two-component carnitine monooxygenase from Escherichia coli: functional characterization, inhibition and mutagenesis of the molecular interface” (Bioscience Reports, 2022).
No constants are given. Whether binding was seen depends on the method and setting. Each block holds one binder with its values, some of them ahead of it.

How the values were obtained:
[1] = target: T1, YeaX, reductase component of carnitine monooxygenase from E. coli (E. coli) (UniProt P76254); experiment: pull-down; protein-protein interaction experiments with immobilized YeaX (or YeaW); high concentrations of L-carnitine and NADH, in the absence of molecular oxygen; both purified
T1 sequence: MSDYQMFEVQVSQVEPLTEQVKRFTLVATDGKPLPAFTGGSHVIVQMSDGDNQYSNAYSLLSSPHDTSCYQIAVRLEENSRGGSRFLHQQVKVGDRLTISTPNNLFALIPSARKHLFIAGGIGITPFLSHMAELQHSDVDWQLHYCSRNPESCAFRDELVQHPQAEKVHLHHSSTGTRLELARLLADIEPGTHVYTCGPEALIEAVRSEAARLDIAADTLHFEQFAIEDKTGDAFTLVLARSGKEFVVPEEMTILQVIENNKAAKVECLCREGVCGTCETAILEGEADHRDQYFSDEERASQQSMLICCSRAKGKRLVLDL

[2] = target: T2, YeaW, Rieske-type oxygenase component of carnitine monooxygenase from E. coli (E. coli) (UniProt P0ABR7); experiment: as above
T2 sequence: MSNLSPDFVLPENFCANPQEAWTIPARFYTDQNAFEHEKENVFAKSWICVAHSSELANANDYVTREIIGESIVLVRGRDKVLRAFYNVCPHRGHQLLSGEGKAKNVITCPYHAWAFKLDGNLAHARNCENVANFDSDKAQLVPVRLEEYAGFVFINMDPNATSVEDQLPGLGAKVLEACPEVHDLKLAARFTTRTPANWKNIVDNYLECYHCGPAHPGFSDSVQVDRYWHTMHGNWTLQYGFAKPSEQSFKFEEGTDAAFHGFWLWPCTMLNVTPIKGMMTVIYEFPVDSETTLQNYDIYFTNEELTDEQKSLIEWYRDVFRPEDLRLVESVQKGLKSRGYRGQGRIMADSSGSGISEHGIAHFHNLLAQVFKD

[3] = target: T1, YeaX, reductase component of carnitine monooxygenase from E. coli (E. coli); experiment: SEC; analytical gel filtration, Superdex 200 increase 5/150 GL, 10 mM Hepes-NaOH pH 7.5, 150 mM NaCl, 0.45 ml min^-1, 20 µl samples (~300 µM), calibrated with protein standards; both purified

binding [1]: no binding
B1: YeaW, Rieske-type oxygenase component of carnitine monooxygenase from E. coli (enzyme, UniProt P0ABR7 1-374, looked up)
chain: T2 sequence
notes: primers run from the start to the stop codon; No cleavage of the tag is described; calculated molecular mass 45,463 Da; Carries a Rieske-type [2Fe-2S] cluster and a mononuclear [Fe] center; also called oxygenase YeaW; catalytic unit YeaW

B2: YeaX, reductase component of carnitine monooxygenase from E. coli (enzyme, UniProt P76254 1-321, looked up)
chain: T1 sequence
binding [2]: no binding
binding [3]: no binding (tested: ~300 µM (20 µl injected))
